PMC6547012, “TCP Transcription Factors Associate with PHYTOCHROME INTERACTING FACTOR 4 and CRYPTOCHROME 1 to Regulate Thermomorphogenesis in Arabidopsis thaliana” (iScience, 2019)
No constants are given. Whether binding was seen depends on the method and setting. Binding seen in cells or lysates may run through a third protein. Some entries that bind do so weakly or less than the wild type. Tags and fused reporters may be left off the sequences shown.

Amino acid sequences for entries named in this document (tags omitted).
UniProt Q43125: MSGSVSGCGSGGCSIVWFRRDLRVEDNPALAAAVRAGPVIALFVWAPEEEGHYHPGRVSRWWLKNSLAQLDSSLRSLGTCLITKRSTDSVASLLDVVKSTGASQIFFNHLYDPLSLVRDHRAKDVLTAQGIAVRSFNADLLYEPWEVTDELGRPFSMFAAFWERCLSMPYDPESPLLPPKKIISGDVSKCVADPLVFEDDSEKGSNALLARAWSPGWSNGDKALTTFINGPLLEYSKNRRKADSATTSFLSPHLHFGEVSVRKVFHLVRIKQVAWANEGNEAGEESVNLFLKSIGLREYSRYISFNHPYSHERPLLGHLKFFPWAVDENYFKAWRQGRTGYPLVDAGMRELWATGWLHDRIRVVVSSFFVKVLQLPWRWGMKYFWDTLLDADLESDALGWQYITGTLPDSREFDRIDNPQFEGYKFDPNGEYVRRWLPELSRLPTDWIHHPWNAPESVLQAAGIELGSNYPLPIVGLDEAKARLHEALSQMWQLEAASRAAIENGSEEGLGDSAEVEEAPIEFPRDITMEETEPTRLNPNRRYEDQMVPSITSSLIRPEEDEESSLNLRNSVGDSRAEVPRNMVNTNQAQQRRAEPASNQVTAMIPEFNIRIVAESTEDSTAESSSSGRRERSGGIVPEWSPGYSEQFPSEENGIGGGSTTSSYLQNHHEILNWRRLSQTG

Columns and labels:
[1] = molecular target: T1, TCP17-FLAG (Arabidopsis thaliana) (UniProt Q9LEZ9); assay: co-IP; anti-FLAG affinity matrix (Sigma) on plant extracts, plants at 22°C or 28°C; blots with anti-FLAG and anti-CRY1
T1 sequence: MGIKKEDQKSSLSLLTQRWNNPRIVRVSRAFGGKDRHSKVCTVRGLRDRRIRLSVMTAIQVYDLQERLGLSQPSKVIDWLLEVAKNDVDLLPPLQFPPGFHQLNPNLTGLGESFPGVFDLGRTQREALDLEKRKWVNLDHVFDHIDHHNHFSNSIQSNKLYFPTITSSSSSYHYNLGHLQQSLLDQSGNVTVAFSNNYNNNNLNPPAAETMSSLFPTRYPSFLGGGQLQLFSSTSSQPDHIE

[2] = molecular target: T2, TCP17-nYFP (Arabidopsis thaliana) (UniProt Q9LEZ9); assay: split reporter; BiFC of TCP17-nYFP and PIF4-cYFP in N. benthamiana leaves with or without co-expression of 35S::CRY1-HA
T2 sequence: T1 sequence

[3] = molecular target: T2, TCP17-nYFP (Arabidopsis thaliana); assay: split reporter; BiFC; Nicotiana benthamiana leaves co-infiltrated with Agrobacterium harboring nYFP and cYFP fusions; fluorescence in the nucleus
[4] = molecular target: T3, TCP5-nYFP (Arabidopsis thaliana) (UniProt Q9FME3); assay: as above
T3 sequence: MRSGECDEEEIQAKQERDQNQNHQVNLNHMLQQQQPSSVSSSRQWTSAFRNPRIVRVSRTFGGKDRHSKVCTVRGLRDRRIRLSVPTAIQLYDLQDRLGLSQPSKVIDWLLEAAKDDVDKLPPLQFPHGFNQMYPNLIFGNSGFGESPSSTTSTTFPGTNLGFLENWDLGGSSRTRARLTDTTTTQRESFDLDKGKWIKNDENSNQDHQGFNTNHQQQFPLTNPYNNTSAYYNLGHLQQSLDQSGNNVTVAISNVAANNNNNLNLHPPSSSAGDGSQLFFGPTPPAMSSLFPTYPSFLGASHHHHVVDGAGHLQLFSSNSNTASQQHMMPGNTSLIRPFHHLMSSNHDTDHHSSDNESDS

[5] = molecular target: T4, PIF4-cYFP (Arabidopsis thaliana) (UniProt Q8W2F3); assay: split reporter; BiFC of TCP17-nYFP and PIF4-cYFP in N. benthamiana leaves with or without co-expression of 35S::CRY1-HA
T4 sequence: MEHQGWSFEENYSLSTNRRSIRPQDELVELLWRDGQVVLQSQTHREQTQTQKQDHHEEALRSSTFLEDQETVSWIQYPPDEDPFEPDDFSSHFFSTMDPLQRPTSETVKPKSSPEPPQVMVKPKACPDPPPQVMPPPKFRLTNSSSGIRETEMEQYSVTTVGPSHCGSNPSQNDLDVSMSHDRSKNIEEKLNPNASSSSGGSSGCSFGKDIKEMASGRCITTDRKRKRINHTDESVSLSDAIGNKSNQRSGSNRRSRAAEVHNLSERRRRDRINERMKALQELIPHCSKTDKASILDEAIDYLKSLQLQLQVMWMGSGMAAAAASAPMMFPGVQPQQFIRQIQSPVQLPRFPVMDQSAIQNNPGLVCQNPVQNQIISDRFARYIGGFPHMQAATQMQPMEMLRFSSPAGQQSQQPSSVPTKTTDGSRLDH

[6] = molecular target: T4, PIF4-cYFP (Arabidopsis thaliana); assay: split reporter; BiFC; Nicotiana benthamiana leaves co-infiltrated with Agrobacterium harboring nYFP and cYFP fusions; fluorescence in the nucleus

## CRY1 (in Arabidopsis plants, detected with anti-CRY1) (from UniProt Q43125 1-681)
[1]
  binding: binds

## CRY1-HA (from UniProt Q43125 1-681)
[2]
  binding: binds

## CRY1-cYFP (from UniProt Q43125 1-681)
[3]
  binding: binds
[4]
  binding: binds

B1: MBP-TCP17 (natural protein, Arabidopsis thaliana, UniProt Q9LEZ9 1-242, looked up)
chain: T1 sequence
notes: TCP17, Arabidopsis thaliana; also called MBP-tagged TCP17; source: E. coli expressed and purified
[5]
  binding: binds
[6]
  binding: binds

B2: TCP5-nYFP (protein, UniProt Q9FME3 1-360)
chain: T3 sequence
[6]
  binding: binds
